Results are given in words; binding and its absence hold for the method and conditions named. In cells and extracts the contact can be indirect. These calls come from enrichment with a bait or labelling near it, and not all partners need be listed.
Target: T1, endogenous Znf179 (mouse brain) (mouse (endogenous in mouse brain)) (UniProt Q96DY5)
T1 sequence: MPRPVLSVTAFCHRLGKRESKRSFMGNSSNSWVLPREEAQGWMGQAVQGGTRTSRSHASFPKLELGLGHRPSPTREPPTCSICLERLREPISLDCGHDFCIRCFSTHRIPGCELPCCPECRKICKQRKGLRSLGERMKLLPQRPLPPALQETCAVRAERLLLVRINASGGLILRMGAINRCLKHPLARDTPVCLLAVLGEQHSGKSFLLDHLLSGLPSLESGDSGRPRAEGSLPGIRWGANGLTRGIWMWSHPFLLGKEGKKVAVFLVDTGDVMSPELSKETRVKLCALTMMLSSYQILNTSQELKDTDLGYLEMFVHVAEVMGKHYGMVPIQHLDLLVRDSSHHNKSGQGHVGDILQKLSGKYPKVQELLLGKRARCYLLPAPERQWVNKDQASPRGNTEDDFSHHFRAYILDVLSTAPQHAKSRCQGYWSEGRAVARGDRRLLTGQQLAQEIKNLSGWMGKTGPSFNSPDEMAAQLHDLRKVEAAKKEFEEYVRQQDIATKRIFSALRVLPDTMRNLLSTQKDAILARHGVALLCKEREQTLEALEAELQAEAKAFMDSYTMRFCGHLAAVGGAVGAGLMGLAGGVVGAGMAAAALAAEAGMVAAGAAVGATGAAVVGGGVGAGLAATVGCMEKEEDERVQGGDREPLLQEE
Assay: affinity purification with mass spectrometry; whole brain lysates of wild-type and Znf179 knockout mice immunoprecipitated with anti-Znf179 antibody, SDS-PAGE, bands excised, in-gel trypsin digestion, LTQ Orbitrap XL, Mascot

The chains behind the UniProt entries cited, without tags or fusion partners.
UniProt Q921F2: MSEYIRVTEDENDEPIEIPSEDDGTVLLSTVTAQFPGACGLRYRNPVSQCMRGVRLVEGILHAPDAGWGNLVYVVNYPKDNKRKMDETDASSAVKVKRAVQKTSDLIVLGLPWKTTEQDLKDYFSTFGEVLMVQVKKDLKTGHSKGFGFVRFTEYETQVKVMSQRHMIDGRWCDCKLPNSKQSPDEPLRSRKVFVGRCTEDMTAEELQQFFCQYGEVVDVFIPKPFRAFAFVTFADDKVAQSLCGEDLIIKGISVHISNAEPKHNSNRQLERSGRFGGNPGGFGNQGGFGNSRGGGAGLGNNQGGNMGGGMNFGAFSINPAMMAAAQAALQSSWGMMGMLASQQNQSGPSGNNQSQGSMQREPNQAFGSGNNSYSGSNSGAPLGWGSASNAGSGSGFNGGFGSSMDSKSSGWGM

binding: binds
Substance: endogenous TDP-43 (mouse brain) (from UniProt Q921F2 1-414)

Reference: PMC6223059
